# Assay results published in PubChem BioAssay AID1347423 (Functional Genomics Laboratory (NCATS/FGL), 2020).
# The whole screen tested about 52,000 sequences, of which about 210 (0.4%) were called active.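 Rule for the calls: active = gene whose silencing raises cell survival under the drug, median off-target-corrected z-score across its silencing RNAs 2 or more; inactive = the rest.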 The list shows a part of the results.
# Test: Resistance to Poly (ADP-Ribose) Polymerase inhibitor: Gene Identification via Genome-wide siRNA Screen
# Details: mouse BRCA2 R2336H ES cells, olaparib, CellTiter-Glo viability; hits give high values
# Outline: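 Genome-wide siRNA screen (3 siRNAs/gene, 20 nM) in mouse ES cells carrying hypomorphic BRCA2 R2336H; olaparib 500 nM added 48 h post-transfection, CellTiter-Glo viability 72 h later. Normalized to plate-median negative control; MAD z-scores, gene median, seed-adjusted.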
row,Sequence,z-score
1,GGAAAUUGUGAGAAGAACUTT against 2210009G21Rik,inactive: 0.689
2,GCUCUUGACACUAGAGAUUTT against Ap1s3,inactive: 1.26
3,GGUUGUUAAGCUGAAGCAATT against Prkacb,inactive: -2.29
4,GGAUCUAUGAAACCACCGUTT against 2310016C16Rik,inactive: 2.54
5,GGACAUUCAACCUGAAGUUTT against Hs6st3,inactive: 0.0587
6,GGAGAAAAGCUCUGUUCACTT against Olfr1195,inactive: -0.596
7,GGAGAAGGAACUGUGUGAGTT against Nfkbil1,inactive: -0.452
8,GCAGUUGACAUUUACUCUCTT against Gm67,inactive: -0.284
9,GGCUUUCUUAUUUUCCUGUTT against BC003266,inactive: 0.55
10,GCAGCCUACUAACCGGAUUTT against Cited4,inactive: -1.55
11,GCAUGCUGACCACAAUAGATT against Arhgef11,inactive: 1.01
12,GGAUACUAGCAGUUGUUCGTT against D15Wsu169e,inactive: -0.418
13,GACUUCAUGGUCAAACUUATT against Rpl4,inactive: -0.414
14,CCUUUGUAUUUGACGUGUATT against Idb4,inactive: 0.0721
15,CCAUCACCGAAGCAUUAAATT against 4930504O13Rik,inactive: 0.308
16,GGGAAAUGAGUUUCUACCGTT against Ebna1bp2,inactive: 0.162
17,GGGAUUUUUUAUUAAGCCCTT against Foxg1,inactive: -1.12
18,CCACUCAUUGUUCAUGGAATT against Olfr1490,inactive: 0.476
19,GGAGCUUGAAAUUGUCAUUTT against Magoh,inactive: -2.64
20,GGGACAUGAGUAACUGAUGTT against Dhx8,inactive: 0.0939
21,GGUAGUGUGAAAAUCCUGGTT against Bst1,inactive: 1.52
22,GGACUCUUCUGAACUCUACTT against Ifna13,inactive: 0.549

# Looked up one by one from the entries so far (three):
row,Sequence,z-score
18,CCACUCAUUGUUCAUGGAATT against Olfr1490,inactive: 0.476
17,GGGAUUUUUUAUUAAGCCCTT against Foxg1,inactive: -1.12
14,CCUUUGUAUUUGACGUGUATT against Idb4,inactive: 0.0721

# More records:

row,Sequence,z-score
1,CCCACUGGAAGAUUCAAACTT against 2610029D06Rik,inactive: 0.289
2,GGACAUGUUCAACUCCUUCTT against Ppp4r1,inactive: 0.412
3,GGGCUUUCACACAAUCCCUTT against Kcns1,inactive: 1.47
4,CCAAAACUUGGGCAUGUGCTT against Olfr94,inactive: -0.326
5,GGUUCUUGGAUAAAUCAAGTT against Mrpl40,inactive: 1.81
6,GGGAGUGCCCAUCAUUGUUTT against Rhod,inactive: 0.543
7,GGAAUCGAGAAUUACUACGTT against 2700063A19Rik,inactive: 1.37
8,GGCUAAUUCUGGCUUACGATT against Wfdc5,inactive: 0.282
9,GGGUCUUCCUUUCCUAUGATT against Msi2h,inactive: -0.319
10,GCAUCUGUAAUGAACUGGUTT against Mrpl10,inactive: -0.84
11,GGCAUCUUAUUUCUUGUUATT against 3110043L15Rik,inactive: 1.16
12,GGGCUGGCUACGAUAAGCUTT against Tes,inactive: -0.442
13,GGGUCAGAAUGUUACCAAATT against Cdc27,inactive: -3.33
14,GGGCUACUCAGCCUAUAGUTT against Accn4,inactive: -0.0201
15,GGCGAAUGUGUGAAGAGGCTT against H2-Q5,inactive: 1.33
16,GGUUAGCAACAUUAAGAAGTT against Cops7b,inactive: -0.294
17,GGAGAAAAACUUCUGGAACTT against Wdr41,inactive: 0.825
18,GCGAAAGAAGGUGAUUAUGTT against Cyp26a1,inactive: -1.2
19,GGACUUUGUCAACCUGAUGTT against Rhbdl4,inactive: 0.37
20,GGUAGUUUGAAAUGCUAACTT against St6gal2,inactive: 1.79
21,GGUGACAAUUCAAAACUCATT against Fgf18,inactive: -0.89
22,GCCAAACUGCGUCUGAAUGTT against Rras,inactive: -0.211

row,Sequence,z-score
1,GCUUAACAACUACGAGCCCTT against Dot1l,inactive: -0.469
2,GGAACUCACAACUAUGAGCTT against Pla2g10,inactive: -0.635
3,GCCGCUUAUAUGUAUCGCUTT against Acdc,inactive: -0.197
4,GGGAGAUAGGCAUUUGAUGTT against Arid3a,inactive: 0.762
5,GGUUCUCGCUCUUAUCUGUTT against D1Ertd396e,inactive: -0.296
6,GGGUAGGAGGAAAGUGUUCTT against Olfr1093,inactive: 1.78
7,GGCAUUUCUUCCAGAUAUUTT against Il1r1,inactive: 2.44
8,GGGCAAAGGUCAGUACUUGTT against Col8a2,inactive: -0.0431
9,CGACGUGAGUUAAUGCUGCTT against AI449441,inactive: -1.15
10,GGAGCUCCUUUACUGAAGGTT against 3110070M22Rik,inactive: -0.302
11,GCAUAAGGUUUGUGACAUUTT against Wrnip1,inactive: 2.39
12,GGUGGGUACUGAAAGCCCATT against 4922504M18Rik,inactive: 0.904
13,CCAUACGAUGACUGAAUUCTT against Olfr1186,inactive: 0.672
14,GGUUCAAAGCUAUCCACUUTT against Rlbp1,inactive: 0.365
15,GGCUGAGCCAUUUGACAGATT against AU041783,inactive: -0.706
16,GCAAGCGAUGGCACAUAGATT against Ap1g2,inactive: -0.948
17,CGAAGCUAAAGGAUAUAGATT against 1110025H10Rik,inactive: 0.236
18,GGCGAAGUGUCAUUGUAUUTT against Foxd3,inactive: -1.63
19,GGGACUUUUUUUGAAUCCUTT against Ndrg3,inactive: 0.835
20,GGAGUCUUCGAAAAUUGAGTT against Pmfbp1,inactive: 0.278
21,GGAGAUUUUGGUGGCUAUUTT against Uqcrfs1,inactive: -2.64
22,GCGAUUUCUCUAAAUGGCUTT against 5031414D18Rik,inactive: 2.69
